± gives the uncertainty stated by the source. Many entries were measured with a wide error.
Assay: self-splicing fitness, log relative to wild type (ln ratio); higher = more splicing; Tetrahymena group I intron in knt gene, E. coli kanamycin selection, DiMSum; sequences stand for … in CUCUCU…GGAGGGAAAAGUUAUCAGGCAUGCACCUGGUAGCUAGUCUUUAAACCAAUAGAUUGCAUCGGUUUAAAAGGCAAGACCGUCAAAUUGCGGGAAAGGGGUCAACAGCCGUUCAGUACCAAGUCUCAGGGGAAACUUUGAGAUGGCCUUGCAAAGGGUAUGGUAAUAAGCUGACGGACAUGGUCCUAACCACGCAGCCAAGUCCUAAGUCAACAGAUCUUCUGUUGAUAUGGAUGCAGUUCACAGACUAAAUGUCGGUCGGGGAAGAUGUAUUCUUCUCAUAAGAUAUAGUCGGACCUCUCCUUAAUGGGAGCUAGCGGAUGAAGUGAUGCAACACUGGAGCCGCUGGGAACUAAUUUGUAUGCGAAAGUAUAUUGAUUAGUUUUGGAGUACUCGUGGUCG
In short: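 Six replicate transformations of E. coli BL21(DE3) with a pET-22b(+) library were grown overnight at 37°C or 30°C. The library randomised all eight P1ex-region intron nucleotides, the intron lying in the knt kanamycin-resistance gene, and plates were LB agar with or without 25 μg/mL kanamycin plus 100 μg/mL carbenicillin, 50 μM IPTG and 0.2% rhamnose. Pooled colonies were amplicon-sequenced on an Illumina HiSeq 2500, and fitness is the DiMSum error-weighted combination of wild-type-normalised replicate fold changes, kanamycin versus none.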

Sequence	self-splicing fitness (ln) (30 °C)	self-splicing fitness (ln) (37 °C)
GAAGAGCAAUAUUACGCGCA	-1.11 ± 0.2	-1.35 ± 0.14
UGGCAGCAAUAUUACGCCAC	–	-1.69 ± 1.2
GGCAAGCAAUAUUACGCAGC	-4.22 ± 0.52	–
CAUGAGCAAUAUUACGUACC	-2.74 ± 0.54	-1.66 ± 0.73
CCGUAGCAAUAUUACGCACU	–	-0.778 ± 1.4
GGGAAGCAAUAUUACGGUCC	-1.23 ± 0.91	-0.44 ± 1.4
CUCCAGCAAUAUUACGAGGC	–	-4.06 ± 0.72
ACCGAGCAAUAUUACGCUUC	–	-3.11 ± 0.52
UCCUAGCAAUAUUACGUCCC	-3.21 ± 1.1	–
UUCGAGCAAUAUUACGGGGU	–	-3.34 ± 0.61
CUGGAGCAAUAUUACGCUGA	-3.75 ± 1	-2.42 ± 0.51
UCUCAGCAAUAUUACGCCCC	-1.85 ± 0.88	-2.15 ± 0.65
ACGGAGCAAUAUUACGCCGC	-3.8 ± 0.75	-1.69 ± 0.62
CAAGAGCAAUAUUACGACGC	-3.47 ± 0.6	–
CCCCAGCAAUAUUACGAUAA	-4.64 ± 0.51	–
CGUGAGCAAUAUUACGUCAC	–	-2.18 ± 1.1
CUAGAGCAAUAUUACGCGGA	-2.44 ± 0.78	–
ACAAAGCAAUAUUACGUUGA	-1.49 ± 0.079	-1.24 ± 0.089
UAAGAGCAAUAUUACGGGGG	–	-2.98 ± 0.53

Sequence	self-splicing fitness (ln) (30 °C)	self-splicing fitness (ln) (37 °C)
UGUUAGCAAUAUUACGAAGA	-3.26 ± 0.66	–
AAUCAGCAAUAUUACGCCGC	-2.49 ± 0.55	-0.735 ± 0.54
ACUCAGCAAUAUUACGUCUA	-0.845 ± 0.081	-0.152 ± 0.076
GGGCAGCAAUAUUACGAGAA	-3.05 ± 0.47	-1.87 ± 0.3
GGAUAGCAAUAUUACGAUGC	-2.32 ± 0.71	-0.512 ± 0.63
CCGGAGCAAUAUUACGUGGC	–	-2.47 ± 1.1
UCUUAGCAAUAUUACGAGCC	–	-0.0848 ± 1.2
GUUUAGCAAUAUUACGCUGC	-2.83 ± 0.76	-1.63 ± 0.7
GCGGAGCAAUAUUACGCAUG	-4.09 ± 0.75	–
UUCGAGCAAUAUUACGAUUG	-3.92 ± 0.73	–
GGGUAGCAAUAUUACGCACA	-0.833 ± 0.2	0.402 ± 0.22
UGAGAGCAAUAUUACGAAAA	-3.75 ± 0.62	–
CAGUAGCAAUAUUACGAAUG	-1.36 ± 0.1	-0.492 ± 0.11
GUCUAGCAAUAUUACGGCGU	0.142 ± 0.069	0.0882 ± 0.091
GGGAAGCAAUAUUACGUCAC	-3.08 ± 0.2	-1.77 ± 0.19
AGCGAGCAAUAUUACGCGGU	-4.94 ± 0.58	–
CUUUAGCAAUAUUACGUUCA	-3.54 ± 0.63	-3.21 ± 1
CCGGAGCAAUAUUACGCGUC	-3.7 ± 0.78	–
GGGGAGCAAUAUUACGGUAG	–	-1.83 ± 0.53

Sequence	self-splicing fitness (ln) (30 °C)	self-splicing fitness (ln) (37 °C)
CAGGAGCAAUAUUACGGGCC	-3.76 ± 0.42	-4 ± 1
CUCGAGCAAUAUUACGCCGU	-2.76 ± 0.63	–
UCUCAGCAAUAUUACGCUCC	–	-1.88 ± 0.72
AUAUAGCAAUAUUACGGAGA	-3.84 ± 0.75	–
CAAGAGCAAUAUUACGUGGU	-3.24 ± 0.11	-2.46 ± 0.16
AGAGAGCAAUAUUACGAAGU	-3.06 ± 0.76	-2.56 ± 0.76
UCCUAGCAAUAUUACGCCUU	-2.98 ± 0.33	-2.34 ± 0.35
GGGAAGCAAUAUUACGCCUC	–	0.321 ± 1.2
CAUGAGCAAUAUUACGGUAA	-3.59 ± 0.6	–
UUGUAGCAAUAUUACGUAAC	-3 ± 0.55	–
GAGAAGCAAUAUUACGACUC	-2.38 ± 0.18	-1.82 ± 0.23
UGGUAGCAAUAUUACGUUUC	–	-2.62 ± 0.63
CGAGAGCAAUAUUACGCAAG	-3.6 ± 1	-0.209 ± 0.56
CCGAAGCAAUAUUACGACCA	-2.66 ± 1.1	-0.32 ± 0.56
CUGUAGCAAUAUUACGAACU	–	-2.73 ± 0.54
AGCGAGCAAUAUUACGCACA	-2.76 ± 0.29	-1.06 ± 0.18
GAUUAGCAAUAUUACGUAGU	-3.06 ± 0.15	-1.34 ± 0.12
UCCGAGCAAUAUUACGAGGC	-3.1 ± 0.36	-1.7 ± 0.39
UGCGAGCAAUAUUACGGGGC	–	-3.47 ± 1

3 records picked at random from the list so far:
Sequence	self-splicing fitness (ln) (30 °C)	self-splicing fitness (ln) (37 °C)
CCGAAGCAAUAUUACGACCA	-2.66 ± 1.1	-0.32 ± 0.56
UUGUAGCAAUAUUACGUAAC	-3 ± 0.55	–
AGAGAGCAAUAUUACGAAGU	-3.06 ± 0.76	-2.56 ± 0.76
